This note sets out measurements from paper PMC2408619.

Results are given in words; binding and its absence hold for the method and conditions named.

Test [1] has as its target His-tagged Prn-E Δ190–199 (minor loop deletion) (B. bronchiseptica) (UniProt Q03035). Put plainly: SEC; Superdex 200; loop deletion mutants of Prn-E after refolding and purification; both purified.
Test [2] deals with His-tagged Prn-E Δ399–407 (major loop deletion) (B. bronchiseptica) (UniProt Q03035). Described as above.

Regarding “His-tagged Prn-E Δ190–199 (minor loop deletion) (from UniProt Q03035 38-640) (domain or fragment)”, the binding entry in test [1] was “no binding”.

In the case of “His-tagged Prn-E Δ399–407 (major loop deletion) (from UniProt Q03035 38-640) (domain or fragment)”, the binding entry in test [2] was “no binding”.
